Test results: PMC8348901, “Novel N-Substituted 3-Aryl-4-(diethoxyphosphoryl)azetidin-2-ones as Antibiotic Enhancers and Antiviral Agents in Search for a Successful Treatment of Complex Infections” (International Journal of Molecular Sciences, 2021)

Tested on: Capan-1 (pancreatic adenocarcinoma)
Assay: Cytostatic activity (cell proliferation)
Type: cell-based
Procedure: The 50% cytostatic inhibitory concentration (IC50) causing a 50% decrease in cell proliferation was determined for all obtained compounds toward 9 cancerous cell lines, i.e.,: Capan-1 (pancreatic adenocarcinoma), Hap1 (chronic myeloid leukemia), HCT-116 (colorectal carcinoma), NCI-H460 (lung carcinoma), DND-41 (acute lymphoblastic leukemia), HL-60 (acute myeloid leukemia), K-562 (chronic myeloid leukemia), MM.1S (multiple myeloma), Z-138 non-Hodgkin lymphoma), as well as normal retina (non-cancerous) cells (hTERT RPE-1). Docetaxel, etoposide and stauroporine were used as the reference compounds.
All assays were performed in 96-well microtiter plates. To each well was added (5–7.5) × 10^4 tumor cells and a given amount of the tested compound. The cells were allowed to proliferate at 37 °C in a humidified, CO2-controlled atmosphere. At the end of the incubation period, the cells were counted in a Coulter counter. The IC50 (50% inhibitory concentration) was defined as the concentration of the compound that inhibited cell proliferation by 50%.

SMILES: CN[C@@H]1C[C@H]2O[C@@](C)([C@@H]1OC)n1c3ccccc3c3c4c(c5c6ccccc6n2c5c31)C(=O)NC4 [Stauroporine, reference compound]
- IC50: 0.66 µM
